Laboratory results taken from patent US12622912B2, “Application of pyrido[1,2-a]pyrimidinone analog” (GUANGZHOU JOYO PHARMATECH CO., LTD, priority 2021, dated 2026).

Tests used:
[1] = system: TCCSUP PIK3CA-mutated bladder cancer cell line; assay: CTG cell proliferation, TCCSUP; format: cell-based; settings: Homo sapiens, TCC-SUP, 72 h, read-out: Absolute IC50
Description: (§1) (2) Reagents • 1) FBS (fetal bovine serum) (purchased from ExCell, product number: FND500); • 2) MEM medium (purchased from Hyclone, product number: SH30024.01; • 3) MEM NEAA (purchased from Gibco, product number: 11140-050); • 4) Sodium pyruvate (purchased from Gibco). […]
(§2) Step 1: Cells in exponential growth phase were harvested, and viable cells were counted with a Vi-Cell XR cytometer. […]
(§3) Step 3: After 72 hours of drug treatment, 50 μL (½ culture volume) CTG solution that was melted and equilibrated to room temperature was added to each well according to the CTG operation instruction. […] After 10 minutes, the fluorescence signal value was measured with an Envision2104 plate reader.
(§4) Cell survival rate was calculated using the formula: Vsample/Vvehicle control×100%. Where, Vsample was the reading of the drug treatment group, and Vvehicle control was the average value of the solvent control group. GraphPad Prism 5.0 software was used, and a S-type dosage-survival rate curve was drawn using a nonlinear regression model and IC50 value was calculated.

[2] = system: J82 PIK3CA-mutated bladder cancer cell line; assay: CTG cell proliferation, J82; format: cell-based; settings: 72 h, read-out: Absolute IC50
Description: as §1, §2, §3, §4

IC50 [1]: > 3000 nM
IC50 [2]: > 3000 nM
Structure (SMILES): COc1cc(OC)cc(N(CCNC(C)C)c2ccc3ncc(-c4cnn(C)c4)nc3c2)c1 [Erdafitinib]
